Reference: publication PMC8034861

Protein sequences, listed by entry. Tags and fused reporters are not part of them.
UniProt P33175: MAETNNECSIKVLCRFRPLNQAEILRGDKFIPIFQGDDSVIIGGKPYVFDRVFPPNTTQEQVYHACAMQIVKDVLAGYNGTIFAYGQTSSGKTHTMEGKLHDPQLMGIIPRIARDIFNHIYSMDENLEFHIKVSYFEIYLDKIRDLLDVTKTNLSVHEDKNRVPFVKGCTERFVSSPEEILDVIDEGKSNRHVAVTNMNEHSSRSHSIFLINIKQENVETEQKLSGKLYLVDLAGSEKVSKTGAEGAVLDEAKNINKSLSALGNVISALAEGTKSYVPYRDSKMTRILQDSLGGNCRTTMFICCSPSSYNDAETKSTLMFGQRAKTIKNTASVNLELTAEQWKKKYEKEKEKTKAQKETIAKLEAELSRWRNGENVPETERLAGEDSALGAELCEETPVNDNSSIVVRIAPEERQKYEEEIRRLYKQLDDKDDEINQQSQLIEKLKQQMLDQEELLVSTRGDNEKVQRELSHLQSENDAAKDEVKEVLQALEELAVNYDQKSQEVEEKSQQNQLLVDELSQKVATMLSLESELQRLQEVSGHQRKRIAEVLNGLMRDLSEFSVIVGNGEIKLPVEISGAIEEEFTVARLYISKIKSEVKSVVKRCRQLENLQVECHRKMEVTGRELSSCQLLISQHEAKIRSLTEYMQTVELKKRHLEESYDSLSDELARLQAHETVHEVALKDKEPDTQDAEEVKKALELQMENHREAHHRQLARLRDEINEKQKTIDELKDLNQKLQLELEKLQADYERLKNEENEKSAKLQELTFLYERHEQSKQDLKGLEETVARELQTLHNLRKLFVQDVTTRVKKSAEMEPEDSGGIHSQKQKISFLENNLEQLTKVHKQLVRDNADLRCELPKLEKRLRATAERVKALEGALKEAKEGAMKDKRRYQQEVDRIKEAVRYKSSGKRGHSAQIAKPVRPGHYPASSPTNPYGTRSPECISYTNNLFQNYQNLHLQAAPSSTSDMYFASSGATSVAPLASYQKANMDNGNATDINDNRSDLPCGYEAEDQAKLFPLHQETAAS
UniProt Q61768: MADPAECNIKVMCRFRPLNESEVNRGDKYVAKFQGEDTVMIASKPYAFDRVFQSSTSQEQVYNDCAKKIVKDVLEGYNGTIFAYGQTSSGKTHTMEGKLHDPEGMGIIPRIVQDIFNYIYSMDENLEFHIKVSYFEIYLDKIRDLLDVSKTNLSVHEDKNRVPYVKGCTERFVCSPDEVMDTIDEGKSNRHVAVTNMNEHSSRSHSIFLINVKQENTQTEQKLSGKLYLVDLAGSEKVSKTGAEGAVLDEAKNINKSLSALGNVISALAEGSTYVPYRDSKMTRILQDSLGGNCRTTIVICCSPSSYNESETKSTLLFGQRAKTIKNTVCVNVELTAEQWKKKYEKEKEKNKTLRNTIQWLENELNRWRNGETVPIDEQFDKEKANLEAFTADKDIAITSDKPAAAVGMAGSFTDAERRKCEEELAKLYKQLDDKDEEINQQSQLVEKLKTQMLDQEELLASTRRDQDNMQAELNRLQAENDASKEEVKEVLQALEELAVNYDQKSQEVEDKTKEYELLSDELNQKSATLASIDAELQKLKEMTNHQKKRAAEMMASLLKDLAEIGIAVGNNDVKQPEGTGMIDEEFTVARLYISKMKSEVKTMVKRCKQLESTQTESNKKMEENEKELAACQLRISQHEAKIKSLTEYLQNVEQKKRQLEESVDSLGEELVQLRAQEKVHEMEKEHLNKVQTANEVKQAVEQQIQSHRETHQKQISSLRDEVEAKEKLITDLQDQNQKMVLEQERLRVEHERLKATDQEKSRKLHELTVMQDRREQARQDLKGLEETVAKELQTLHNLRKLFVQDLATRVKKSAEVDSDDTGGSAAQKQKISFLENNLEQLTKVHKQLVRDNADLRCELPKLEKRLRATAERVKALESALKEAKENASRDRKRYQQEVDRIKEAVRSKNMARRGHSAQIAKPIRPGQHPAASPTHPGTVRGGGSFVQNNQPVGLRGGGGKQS
UniProt P28738: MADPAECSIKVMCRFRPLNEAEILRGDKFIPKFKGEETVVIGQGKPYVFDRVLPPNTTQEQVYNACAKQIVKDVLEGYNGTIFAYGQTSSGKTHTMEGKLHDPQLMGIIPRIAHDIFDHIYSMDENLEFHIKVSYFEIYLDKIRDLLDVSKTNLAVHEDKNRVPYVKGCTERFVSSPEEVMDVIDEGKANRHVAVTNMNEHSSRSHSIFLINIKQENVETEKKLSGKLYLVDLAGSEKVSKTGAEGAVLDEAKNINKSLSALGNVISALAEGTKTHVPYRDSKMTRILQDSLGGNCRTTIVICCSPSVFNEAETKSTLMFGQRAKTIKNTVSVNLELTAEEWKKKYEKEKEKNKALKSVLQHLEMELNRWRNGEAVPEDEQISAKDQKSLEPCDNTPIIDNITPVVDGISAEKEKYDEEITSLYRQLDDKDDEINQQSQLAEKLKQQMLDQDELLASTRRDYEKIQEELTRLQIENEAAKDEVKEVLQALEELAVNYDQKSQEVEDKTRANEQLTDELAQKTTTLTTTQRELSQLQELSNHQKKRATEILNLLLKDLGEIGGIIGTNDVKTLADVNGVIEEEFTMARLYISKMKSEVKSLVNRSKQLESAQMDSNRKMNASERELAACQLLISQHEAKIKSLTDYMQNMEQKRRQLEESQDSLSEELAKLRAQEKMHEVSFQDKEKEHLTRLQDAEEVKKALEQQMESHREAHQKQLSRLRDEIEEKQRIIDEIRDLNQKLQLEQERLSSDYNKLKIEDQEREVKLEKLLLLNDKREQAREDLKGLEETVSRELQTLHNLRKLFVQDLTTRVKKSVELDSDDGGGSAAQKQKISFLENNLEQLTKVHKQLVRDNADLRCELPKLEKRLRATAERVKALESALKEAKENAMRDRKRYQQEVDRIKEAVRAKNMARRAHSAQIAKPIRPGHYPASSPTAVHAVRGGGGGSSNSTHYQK

Target: T1, PR30 peptide (30 repeats of proline-arginine), unlabelled (human)
T1 sequence (peptide): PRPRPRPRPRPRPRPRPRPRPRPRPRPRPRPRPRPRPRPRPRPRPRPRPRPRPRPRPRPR
Assay: affinity purification with mass spectrometry; 50 μM PR30 added to 0.5 mg soluble mouse spinal cord lysate in PBS (400 μl), 15 min; peptide-induced condensates pelleted at 3220g, washed three times with PBS; LC-MS/MS; some samples cross-linked with 0.5% paraformaldehyde; only the target purified

Row | binding | Substance
1 | binds | Kif5A (kinesin-1 isoform), mouse spinal cord (from UniProt P33175 1-1027)
2 | binds | Kif5B (kinesin-1 isoform), mouse spinal cord (from UniProt Q61768 1-963)
3 | binds | Kif5C (kinesin-1 isoform), mouse spinal cord (from UniProt P28738 1-956)

Results are given in words; binding and its absence hold for the method and conditions named. Binding seen in cells or lysates may run through a third protein. These calls come from enrichment with a bait or labelling near it, and not all partners need be listed.
